Among the data in publication PMC2584773 are binding values, retold here.

Sequences of proteins named here, by UniProt entry; tags and fusion partners are left off. A change or cut given only in a name is not applied to a line headed by its entry. A line that says so, or that is headed by a name, gives the form on record, which may keep a tag or linker. Residues count along the entry.
UniProt Q92786: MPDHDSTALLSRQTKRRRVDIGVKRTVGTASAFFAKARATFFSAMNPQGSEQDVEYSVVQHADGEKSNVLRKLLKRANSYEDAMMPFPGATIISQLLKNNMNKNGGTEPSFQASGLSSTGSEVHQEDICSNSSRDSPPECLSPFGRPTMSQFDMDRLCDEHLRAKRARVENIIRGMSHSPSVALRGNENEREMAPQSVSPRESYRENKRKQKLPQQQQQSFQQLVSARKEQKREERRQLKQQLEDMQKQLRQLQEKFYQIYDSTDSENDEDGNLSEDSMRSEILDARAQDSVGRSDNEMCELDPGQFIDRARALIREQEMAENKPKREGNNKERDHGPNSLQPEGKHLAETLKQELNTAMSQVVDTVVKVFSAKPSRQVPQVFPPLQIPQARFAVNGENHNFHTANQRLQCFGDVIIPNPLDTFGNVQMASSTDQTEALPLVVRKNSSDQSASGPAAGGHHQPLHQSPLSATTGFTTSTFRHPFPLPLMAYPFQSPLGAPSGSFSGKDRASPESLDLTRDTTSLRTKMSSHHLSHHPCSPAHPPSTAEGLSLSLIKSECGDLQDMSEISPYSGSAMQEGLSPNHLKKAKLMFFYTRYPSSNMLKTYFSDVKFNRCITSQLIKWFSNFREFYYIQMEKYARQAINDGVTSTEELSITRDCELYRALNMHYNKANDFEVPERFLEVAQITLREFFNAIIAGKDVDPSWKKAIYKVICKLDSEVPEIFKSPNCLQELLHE
PCNA C+ fragment (amino acids 115-261), carboxyl-terminal domain 2 plus the IDCL, fused to the Gal4 activation domain (P17918, residues 115-261): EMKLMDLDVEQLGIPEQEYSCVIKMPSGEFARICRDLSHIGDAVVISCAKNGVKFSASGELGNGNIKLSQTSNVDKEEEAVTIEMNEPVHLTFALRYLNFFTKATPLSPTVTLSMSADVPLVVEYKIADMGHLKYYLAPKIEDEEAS
UniProt P17918, residues 167-261: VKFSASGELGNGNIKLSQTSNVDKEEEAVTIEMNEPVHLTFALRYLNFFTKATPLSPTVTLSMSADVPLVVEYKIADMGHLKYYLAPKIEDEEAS

Common to all, as to assay: two-hybrid; mating of AH109 (Gal4 DNA-binding domain-Prox1 bait) with Y187 (Gal4 activation domain-PCNA prey); colonies from DO plates restreaked on high stringency quadruple drop out (QDO) plates with X-alpha-Gal; growth and blue colour
The target in assay [1] is Prox1 homeo-Prospero domain PIP box mutant ELF (human) (UniProt Q92786).
The target of assay [2] is Prox1 homeo-Prospero domain PIP box mutant LF (human) (UniProt Q92786).
For assay [3], the target named is Prox1 homeo-Prospero domain PIP box mutant QLFF (human) (UniProt Q92786).

These are yes or no findings as the source states them, for the method shown. For part of these data: Binding can be weak; no strength is given.

With “carboxyl-terminus of PCNA (amino acids 167-261), original clone isolated from the library, fused to the Gal4 activation domain (from UniProt P17918 167-261) (domain or fragment)”, the results for the binding result in assay [1], in assay [2] and in assay [3] were “binds”, “binds” and “no binding”, respectively.
Take “PCNA C+ fragment (amino acids 115-261), carboxyl-terminal domain 2 plus the IDCL, fused to the Gal4 activation domain (from UniProt P17918 115-261) (domain or fragment)”: the binding result was “binds” in assay [1], “binds” in assay [2] and “no binding” in assay [3].
